Patent US6624144B1, “Matrix metalloproteinase inhibitors and down-regulators” (CTT Cancer Targeting Technologies Oy, priority 1998, dated 2003)
Entries after “also recorded” stand apart in the source; their conditions may differ. Not every detail of the peptide structures is certain; ends, links or a residue may be inferred. Bridge positions count the residues as written; N and C are the ends. Ends that are not written are not given here. Peptide text beside a SMILES is read from it.

Sequences of proteins named here, by UniProt entry; tags and fusion partners are left off. Residues count along the entry.
UniProt P14780, 94-707: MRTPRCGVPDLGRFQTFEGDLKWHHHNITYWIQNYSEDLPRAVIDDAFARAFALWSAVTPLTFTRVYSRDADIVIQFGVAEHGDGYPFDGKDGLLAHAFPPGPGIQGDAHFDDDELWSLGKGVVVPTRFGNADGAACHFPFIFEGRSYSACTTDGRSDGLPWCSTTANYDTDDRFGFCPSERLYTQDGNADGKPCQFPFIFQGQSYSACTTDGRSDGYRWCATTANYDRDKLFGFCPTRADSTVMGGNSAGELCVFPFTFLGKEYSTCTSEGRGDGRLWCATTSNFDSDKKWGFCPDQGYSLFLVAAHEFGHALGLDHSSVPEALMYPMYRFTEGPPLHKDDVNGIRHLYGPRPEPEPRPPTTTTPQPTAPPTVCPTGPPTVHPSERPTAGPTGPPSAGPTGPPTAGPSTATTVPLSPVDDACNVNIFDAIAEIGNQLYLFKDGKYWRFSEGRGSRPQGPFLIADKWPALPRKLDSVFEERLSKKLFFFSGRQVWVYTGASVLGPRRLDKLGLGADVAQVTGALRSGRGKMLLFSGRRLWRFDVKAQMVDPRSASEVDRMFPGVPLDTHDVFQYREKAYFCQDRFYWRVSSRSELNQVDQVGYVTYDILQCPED
UniProt P14780, 20-707 limits assumed: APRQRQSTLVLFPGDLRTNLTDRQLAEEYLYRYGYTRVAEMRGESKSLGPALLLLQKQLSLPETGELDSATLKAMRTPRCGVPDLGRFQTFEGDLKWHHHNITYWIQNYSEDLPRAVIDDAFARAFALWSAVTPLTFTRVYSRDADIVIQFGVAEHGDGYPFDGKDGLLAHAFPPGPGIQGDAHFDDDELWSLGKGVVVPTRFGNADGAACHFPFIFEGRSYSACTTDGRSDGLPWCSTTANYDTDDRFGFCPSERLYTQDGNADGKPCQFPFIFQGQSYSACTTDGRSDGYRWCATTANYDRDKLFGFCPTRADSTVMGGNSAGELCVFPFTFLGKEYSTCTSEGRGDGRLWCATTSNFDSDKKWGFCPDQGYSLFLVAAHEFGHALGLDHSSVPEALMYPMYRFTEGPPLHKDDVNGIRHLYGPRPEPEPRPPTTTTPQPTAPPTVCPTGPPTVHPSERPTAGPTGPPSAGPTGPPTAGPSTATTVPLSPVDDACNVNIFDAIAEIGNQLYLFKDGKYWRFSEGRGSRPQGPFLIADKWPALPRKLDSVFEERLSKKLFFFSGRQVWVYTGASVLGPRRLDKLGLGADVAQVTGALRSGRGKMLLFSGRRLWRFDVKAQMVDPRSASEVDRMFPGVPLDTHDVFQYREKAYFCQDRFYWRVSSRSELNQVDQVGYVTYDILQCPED

What was measured:
MMP-9 = target: T1, MMP-9 (Homo sapiens, UniProt P14780); test: β-casein degradation by MMP-9; format: biochemical
T1 construct: from tissue; host or cells: human neutrophils

[1] = target: membrane-type matrix metalloproteinase-1 (MT1-MMP) (Homo sapiens, UniProt P50281); test: Inhibition of MT1-MMP; format: biochemical; conditions: 0-200 μ/ml
proMMP-2 = target: T2, proMMP-2 (Homo sapiens, UniProt P08253); test: [125I]-gelatin degradation by proMMP-2; format: biochemical; conditions: 10 μg/ml
T2 construct: endogenous in cells; host or cells: human gingival fibroblasts (serum-free culture medium)
T2 sequence (P08253 30-660 limits assumed): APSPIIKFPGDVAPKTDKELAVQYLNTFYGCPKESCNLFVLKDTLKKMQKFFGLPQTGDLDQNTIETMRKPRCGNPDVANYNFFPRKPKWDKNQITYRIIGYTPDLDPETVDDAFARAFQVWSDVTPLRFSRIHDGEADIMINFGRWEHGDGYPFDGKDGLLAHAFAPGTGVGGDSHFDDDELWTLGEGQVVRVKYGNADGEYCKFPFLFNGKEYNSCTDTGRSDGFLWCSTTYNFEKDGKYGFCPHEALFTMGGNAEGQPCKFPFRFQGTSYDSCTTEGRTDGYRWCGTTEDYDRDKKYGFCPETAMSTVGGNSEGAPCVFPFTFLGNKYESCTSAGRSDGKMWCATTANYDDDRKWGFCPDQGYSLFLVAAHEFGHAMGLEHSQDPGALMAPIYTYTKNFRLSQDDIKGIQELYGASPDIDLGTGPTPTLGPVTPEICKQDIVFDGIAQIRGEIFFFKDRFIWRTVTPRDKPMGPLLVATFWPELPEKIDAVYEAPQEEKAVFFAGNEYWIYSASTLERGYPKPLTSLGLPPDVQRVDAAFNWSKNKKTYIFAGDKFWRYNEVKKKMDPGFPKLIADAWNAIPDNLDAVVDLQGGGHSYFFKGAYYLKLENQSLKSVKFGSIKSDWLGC
Method: (§1) For the gelatin and casein degradation assays, purified MMP-2 and MMP-9 (50-100 ng) were first incubated for 60 min with various concentrations of the peptide inhibitors, after which a 21 kDa β-casein (52 μM) or [^125I]-gelatin substrate was added. After incubation for 2 h at 22 ° C., degradation of the casein was analyzed by SDS gel electrophoresis. The degradation of [^125I]-gelatin was determined by counting radioactivity in the supernatant after precipitation of undegraded gelatin with 20% trichloroacetic acid.
(§2) proMMP-2 was purified from serum-free culture medium of human gingival fibroblasts.

APMA-activated MMP-2 = target: T3, APMA-activated MMP-2 (Homo sapiens, UniProt P08253); test: [125I]-gelatin degradation by APMA-activated MMP-2; format: biochemical; conditions: 10 μg/ml
T3 construct: endogenous in cells; host or cells: human gingival fibroblasts (serum-free culture medium)
T3 sequence (P08253 110-660): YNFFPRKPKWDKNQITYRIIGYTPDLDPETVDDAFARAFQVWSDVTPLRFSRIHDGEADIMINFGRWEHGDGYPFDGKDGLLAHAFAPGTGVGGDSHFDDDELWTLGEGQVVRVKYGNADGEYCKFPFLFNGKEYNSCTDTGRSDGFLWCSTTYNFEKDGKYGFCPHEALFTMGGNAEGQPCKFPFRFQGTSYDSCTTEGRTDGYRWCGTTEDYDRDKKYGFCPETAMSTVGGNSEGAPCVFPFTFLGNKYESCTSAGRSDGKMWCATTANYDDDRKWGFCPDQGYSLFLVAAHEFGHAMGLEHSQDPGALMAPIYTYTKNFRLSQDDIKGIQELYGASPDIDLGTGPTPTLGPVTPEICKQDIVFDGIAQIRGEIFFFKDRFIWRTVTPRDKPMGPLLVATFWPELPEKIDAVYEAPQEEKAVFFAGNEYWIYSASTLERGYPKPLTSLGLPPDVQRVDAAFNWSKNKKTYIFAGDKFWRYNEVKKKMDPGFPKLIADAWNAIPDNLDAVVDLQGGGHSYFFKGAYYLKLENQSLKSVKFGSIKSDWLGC
Method: as §1, §2

[2] = tested on: MDA-B-435 human breast carcinoma xenografts; test: Human breast carcinoma xenograft growth in athymic mice; format: in vivo; conditions: 200 μg three times a week adjacent to the tumor, three-week treatment
[3] = tested on: MB-435 breast carcinoma cells; test: Cell morphology and attachment of MB-435 cells; format: cell-based, human
C8161 melanoma cells = test: Transwell random migration of C8161 cells; format: cell-based; conditions: 500 μg/ml, maximal
HT1080 cells = test: Matrigel invasion of HT1080 cells; format: cell-based; conditions: 500 μg/ml, maximal, highest concentration studied
Eahy 926 cells = test: Transwell random migration of Eahy 926 endothelial cells; format: cell-based, human
C8161 cells = test: Matrigel invasion of C8161 cells; format: cell-based; conditions: 500 μg/ml, maximal, highest concentration studied
82 kDa active MMP-9 = test: Gelatin zymography of C8161 conditioned medium, active MMP-9; format: cell-based; conditions: C8161 cells, 48 h, 500-10 μg/ml, 10% serum
72 kDa proMMP-2 = test: Gelatin zymography of C8161 conditioned medium, proMMP-2; format: cell-based; conditions: C8161 cells, 48 h, 500-10 μg/ml, 10% serum
[4] = tested on: HT1080 fibrosarcoma cells; test: Transwell random migration of HT1080 cells; format: cell-based; conditions: for inhibition of HT1080 motility: 10% serum; for effect on cell migration: control peptides
Method: The endothelial cell line HUVEC (human umbilical vein endothelial cells, obtained from the ATCC, Rockville, Md.) was grown in RPMI 1640 medium containing penicillin (100 units/ml), streptomycin (100 μg/ml), 10 mM HEPES, 30 μg/ml endothelial cell growth supplement (Biomedical Technologies, Stoughton, Mass.), and 20% fetal calf serum. The HT1080 fibrosarcoma cells (ATCC, Rockville, Md.), C8161 melanoma cells and Eahy926 cells (derivative of HUVEC) were cultured in Dulbecco's modified Eagle's medium containing the antibiotics, 10% fetal calf serum, and hypoxanthine/aminopterin/thymidine additive with the Eahy926 cells. Cultures of cells were harvested with trypsin-EDTA (endothelial cells) or EDTA alone (other cells), washed, and resuspended in the full serum-containing media as indicated above.
Random cell migration was studied using […] pore size and 6.5 mm diameter Transwell inserts (Costar, Cambridge, Mass.) that were equilibrated in the serum-containing medium for 2 h before use. Tumor cell invasion was studied using 6.4 mm diameter Boyden chambers precoated with Matrigel (Becton Dickinson, Bedford, MA) and equilibrated in the serum-containing medium. 750 μl of the serum containing media were added to the lower compartments of the migration apparatus. For random migration assays, cells were preincubated for 2 h in the presence of the peptides at the concentration indicated, and 20 000 cells in a volume of 100 μl were plated in a Transwell. For Matrigel invasion, each well was plated with 100 000 cells in a 500 μl volume with or without the peptides. After culturing cells for 16-20 h, cells were fixed in methanol, washed, and stained in toluidene blue. Cells were removed from the upper surface of the membrane with a cotton swab, and the cells migrated on the undersite of the membrane were counted microscopically, or alternatively quantitated by scanning.

proMMP-9 = target: T4, proMMP-9 (Homo sapiens, UniProt P14780); test: Peptide-Sepharose affinity chromatography of leukocyte extract; format: binding; conditions: SDS gel and immunoblot
T4 construct: from tissue; host or cells: human neutrophils

HUVEC cells = test: Transwell random migration of HUVEC; format: cell-based, human
cells = test: Cell adhesion on fibronectin, type IV collagen or Matrigel; format: cell-based; conditions: 500 μg/ml, serum-free medium, 1 h
[5] = control peptide, concentration not given

N=C(N)NCCC[C@@H]1NC(=O)[C@H](CCCNC(=N)N)NC(=O)[C@@H](N)CSSC[C@@H](C(=O)O)NC(=O)[C@H](Cc2ccccc2)NC(=O)[C@H](CCC(=O)O)NC(=O)[C@H](Cc2ccccc2)NC(=O)CNC(=O)[C@H](Cc2c[nH]c3ccccc23)NC(=O)[C@H](Cc2c[nH]cn2)NC1=O [CRRHWGFEFC] (H-CRRHWGFEFC-OH; disulfide 1-10; N-terminus and C-terminus assumed) was tested, and the “inhibition of caseinolysis by MMP-9, inhibitory concentration” value (MMP-9) was “low micromolar concentrations”, the “inhibition of MT1-MMP” value [1] was “did not inhibit” and the “gelatinolysis by proMMP-2” value (proMMP-2) was “blocked gelatinolysis”. The “gelatinolysis by APMA-activated MMP-2” value (APMA-activated MMP-2) was “blocked gelatinolysis”.
In the case of CC(C)C[C@@H]1NC(=O)[C@H]([C@@H](C)O)NC(=O)[C@H](Cc2ccccc2)NC(=O)CNC(=O)[C@H](Cc2c[nH]c3ccccc23)NC(=O)[C@H](Cc2c[nH]cn2)NC(=O)[C@H]([C@@H](C)O)NC(=O)[C@H]([C@@H](C)O)NC(=O)[C@@H](N)CSSC[C@@H](C(=O)O)NC1=O [CTTHWGFTLC] (H-CTTHWGFTLC-OH; disulfide 1-10; N-terminus and C-terminus assumed), the “breast carcinoma growth (tumor volume)” value [2] is reported as “clearly inhibited; also recorded: clearly inhibits breast carcinoma growth”, the “initial attachment of cells on the substratum” value ([3]; 1 or 2 h time scale) is reported as “no effect on the initial attachment of cells” and the “time until rounded cell morphology is detectable” value ([3]; 10% serum-containing medium) is reported as 16-24 h. The “inhibition of random migration of C8161 cells” value (C8161 melanoma cells) was 80%, the “inhibition of Matrigel invasion of HT1080 cells” value (HT1080 cells) was 90% and the “inhibition of migration of Eahy 926 cells” value (Eahy 926 cells; 20 μg/ml) was “partially inhibit”. The “inhibition of migration of Eahy 926 cells” value (Eahy 926 cells; 200 μg/ml, 10% serum) was 85%, the “inhibition of Matrigel invasion of C8161 cells” value (C8161 cells) was 90% and the “inhibition of caseinolysis by MMP-9, inhibitory concentration” value (MMP-9) was “low micromolar concentrations”. For the same molecule, the “levels of 82 kDa active MMP-9 in conditioned medium” value (82 kDa active MMP-9) was “inhibits the formation of active 82 kD MMP-9; also recorded: decreased concentration-dependently”, the “levels of 72 kDa proMMP-2 in conditioned medium” value (72 kDa proMMP-2) was “did not affect” and the “inhibition of MT1-MMP” value [1] was “did not inhibit”. The “inhibition of HT1080 motility” value ([4]; 100 μg/ml) was 40%, the “inhibition of HT1080 motility” value ([4]; 500 μg/ml) was 80% and the “binding of proMMP-9 to peptide Sepharose” value (proMMP-9) was “bound a set of polypeptides one of which was the 92 kDa proMMP-9”. For the same molecule, the “inhibition of migration of HUVEC cells” value (HUVEC cells; 20 μg/ml) was “partially inhibit”, the “inhibition of migration of HUVEC cells” value (HUVEC cells; 200 μg/ml, 20% serum) was 60% and the “initial attachment of cells on fibronectin, collagen IV or Matrigel” value (cells) was “did not prevent initial attachment and spreading of cells”.
CQWNNDNPLFKEAEEEVMNPKFAES was tested, and the “effect on cell migration” value ([4]; 500 μg/ml) was “None of these control peptides affected cell migration”.
For “RAVRALWRC [RAVRALWRC, reference compound]”, the “effect on Eahy 926 cell migration” value (Eahy 926 cells; [5]) was “did not cell block cell migration”, the “effect on cell migration” value ([4]; 500 μg/ml) was “None of these control peptides affected cell migration” and the “effect on HUVEC cell migration” value (HUVEC cells; [5]) was “did not cell block cell migration”.
